Results are given in words; binding and its absence hold for the method and conditions named. In cells and extracts the contact can be indirect. Some entries that bind do so weakly or less than the wild type. Tags and fused reporters may be left off the sequences shown. Values belong to the binder of their own block, whether it stands above or below them.
Experiments:
[1] = biological target: T1, PRDX3 101-256aa (human) (UniProt P30048); assay: co-IP; Co-IP with domain deletion mutants of TRIM39 (Δ R, Δ B, Δ SPRY) and fragments of PRDX3 (1-100aa, 1-150aa, 101-150aa, 101-256aa)
T1 sequence: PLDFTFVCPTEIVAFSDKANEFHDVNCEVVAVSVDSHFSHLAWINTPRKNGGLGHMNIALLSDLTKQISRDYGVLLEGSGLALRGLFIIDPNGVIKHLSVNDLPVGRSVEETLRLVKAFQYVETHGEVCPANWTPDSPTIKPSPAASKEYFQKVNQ

[2] = biological target: T2, Flag-tagged PRDX3 (human) (UniProt P30048); assay: co-IP; HA-tagged TRIM39 and Flag-tagged PRDX3; cells collected in RIPA buffer, lysates incubated with antibody or control IgG at 4°C for 10 hours, western blot
T2 sequence: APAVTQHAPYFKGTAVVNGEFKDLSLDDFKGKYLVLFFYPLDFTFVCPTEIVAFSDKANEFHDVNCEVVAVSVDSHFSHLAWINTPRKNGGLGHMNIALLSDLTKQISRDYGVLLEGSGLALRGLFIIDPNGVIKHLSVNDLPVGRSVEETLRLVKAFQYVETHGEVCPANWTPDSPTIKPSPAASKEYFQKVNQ

[3] = biological target: T3, PRDX3 (GST pull-down assay) (human) (UniProt P30048); assay: pull-down; GST pull-down assay; which protein carried GST is not told
T3 sequence: T2 sequence

binding [1]: binds
binding [2]: binds
B1: HA-tagged TRIM39 (protein, UniProt Q9HCM9 1-518)
chain: MAETSLLEAGASAASTAAALENLQVEASCSVCLEYLKEPVIIECGHNFCKACITRWWEDLERDFPCPVCRKTSRYRSLRPNRQLGSMVEIAKQLQAVKRKIRDESLCPQHHEALSLFCYEDQEAVCLICAISHTHRAHTVVPLDDATQEYKEKLQKCLEPLEQKLQEITRCKSSEEKKPGELKRLVESRRQQILREFEELHRRLDEEQQVLLSRLEEEEQDILQRLRENAAHLGDKRRDLAHLAAEVEGKCLQSGFEMLKDVKSTLEKNIPRKFGGSLSTICPRDHKALLGLVKEINRCEKVKTMEVTSVSIELEKNFSNFPRQYFALRKILKQLIADVTLDPETAHPNLVLSEDRKSVKFVETRLRDLPDTPRRFTFYPCVLATEGFTSGRHYWEVEVGDKTHWAVGVCRDSVSRKGELTPLPETGYWRVRLWNGDKYAATTTPFTPLHIKVKPKRVGIFLDYEAGTLSFYNVTDRSHIYTFTDTFTEKLWPLFYPGIRAGRKNAAPLTIRPPTDWE

binding [3]: binds
B2: TRIM39 (GST pull-down assay) (protein, UniProt Q9HCM9 1-518)
chain: B1 chain

— paper PMC10776755
